Data as given in PubChem BioAssay AID652259 (Drosophila RNAi Screening Center, 2013).

- Screen: 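Knock-downs that push a Wingless-driven reporter up or down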 (primary screen)
- Cells: Drosophila clone 8 imaginal disc epithelial cells
- Knock-down reagent: long dsRNA against Drosophila genes
- Challenge: pathway stimulated by co-transfected Wingless expression plasmid
- Read-out: 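Dual luciferase reads per well after Wingless plasmid stimulation: reporter firefly light and Renilla control light; activity is firefly divided by Renilla, a ratio not deposited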
- Reading the numbers: firefly reporter light: higher = more Wg reporter light, before normalisation; Renilla control light: higher = more transfected or surviving cells
- Rule for the call: 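a knock-down is a candidate when at least two out of four statistical tests show it departing from its plate mean; one test alone signals a weak candidate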
- Calls: active = candidate regulator (raises or lowers reporter); inactive = not a candidate
In all, the deposit lists about 22,000 reagents; this is a random part of those that have a named target and a result. Of all reagents, 233 (1.1%) got an active call. 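Light values are raw, unnormalised plate reads; the ratio scores behind the reporter calls were not deposited.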 No sequences are given here. The record does not give: the amount of reagent, the time to read-out, the dose of the treatment.

Smyd4-3 (SET and MYND domain containing, class 4, member 3) [DRSC07041] | firefly reporter light, replicate 1: 7922; Renilla control light, replicate 1: 2329; outcome: inactive
jdp [DRSC16975] | firefly reporter light, replicate 1: 3911; firefly reporter light, replicate 2: 7387; Renilla control light, replicate 1: 1362; Renilla control light, replicate 2: 1056; outcome: inactive
CG7382 [DRSC03052] | firefly reporter light, replicate 1: 8380; Renilla control light, replicate 1: 3222; outcome: inactive
slx1 (nuclease slx1) [DRSC12290] | firefly reporter light, replicate 1: 16713; Renilla control light, replicate 1: 3973; outcome: inactive
TTLL6A (Tubulin tyrosine ligase-like 6A) [DRSC06618] | firefly reporter light, replicate 1: 8689; Renilla control light, replicate 1: 3248; outcome: inactive
bora (aurora borealis) [DRSC10744] | firefly reporter light, replicate 1: 6355; Renilla control light, replicate 1: 1708; outcome: inactive
Loxl1 (Lysyl oxidase-like 1) [DRSC14303] | firefly reporter light, replicate 1: 18060; Renilla control light, replicate 1: 15488; outcome: inactive
CSN7 (COP9 signalosome subunit 7) [DRSC06807] | firefly reporter light, replicate 1: 11261; Renilla control light, replicate 1: 3388; outcome: inactive
CSN7 (COP9 signalosome subunit 7) [DRSC06808] | firefly reporter light, replicate 1: 3883; firefly reporter light, replicate 2: 7008; Renilla control light, replicate 1: 749; Renilla control light, replicate 2: 2106; outcome: inactive
Cdk7 (Cyclin-dependent kinase 7) [DRSC18451] | firefly reporter light, replicate 1: 24736; Renilla control light, replicate 1: 9803; outcome: inactive
CG13739 [DRSC06410] | firefly reporter light, replicate 1: 2560; firefly reporter light, replicate 2: 4342; Renilla control light, replicate 1: 168; Renilla control light, replicate 2: 445; outcome: inactive
Ack (Activated Cdc42 kinase) [DRSC08135] | firefly reporter light, replicate 1: 4307; Renilla control light, replicate 1: 1691; outcome: inactive

Individual results from above.
Result for Smyd4-3 (SET and MYND domain containing, class 4, member 3) [DRSC07041] under “firefly reporter light, replicate 1”: 7922
Under “firefly reporter light, replicate 1”, CSN7 (COP9 signalosome subunit 7) [DRSC06807] reads 11261
